The results in this text go back to patent publication US20060063228A1.

By UniProt entry, the sequences of proteins in these tests, tags left out. Where a name states a change or a piece, a line headed by the entry shows the natural chain unless it says otherwise.
UniProt P35225: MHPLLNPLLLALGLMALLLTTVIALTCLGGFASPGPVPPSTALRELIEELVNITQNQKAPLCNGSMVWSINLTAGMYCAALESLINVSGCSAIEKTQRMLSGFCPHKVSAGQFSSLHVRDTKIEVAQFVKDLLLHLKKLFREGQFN

This experiment concerns the target IL-13 bound to mAb13.2 immobilized on the chip (human) (UniProt P35225). Nature of the experiment: BIACORE; IL-13 captured on immobilized mAb13.2, IL-13Rα1 in solution. Background: In SPR one partner is held on a chip, and binding of the other changes the refractive index at the surface.

No constants are given. Whether binding was seen depends on the method and setting. Some entries that bind do so weakly or less than the wild type.

B1: IL-13Rα1 (receptor, UniProt P78552 22-343, looked up)
chain: GGGGAAPTETQPPVTNLSVSVENLCTVIWTWNPPEGASSNCSLWYFSHFGDKQDKKIAPETRRSIEVPLNERICLQVGSQCSTNESEKPSILVEKCISPPEGDPESAVTELQCIWHNLSYMKCSWLPGRNTSPDTNYTLYYWHRSLEKIHQCENIFREGQYFGCSFDLTKVKDSSFEQHSVQIMVKDNAGKIKPSFNIVPLTSRVKPDPPHIKNLSFHNDDLYVQWENPQNFISRCLFYEVEVNNSQTETHNVFYVQEAKCENPEFERNVENTSCFMVPGVLPDTLNTVRIRVKTNKLCYEDDKLWSNWSQEMSIGKKRNST
B1: the binding entry is on record as “binds”.
